{"sequences": {"note": "Chains of the proteins cited; added tags and fusions are not shown. Residues count along the entry.", "UniProt P55854, residues 1-92": "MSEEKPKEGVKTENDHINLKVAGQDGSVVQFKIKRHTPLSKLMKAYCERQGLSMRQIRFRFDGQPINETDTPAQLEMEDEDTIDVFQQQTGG", "UniProt P63165, residues 1-97": "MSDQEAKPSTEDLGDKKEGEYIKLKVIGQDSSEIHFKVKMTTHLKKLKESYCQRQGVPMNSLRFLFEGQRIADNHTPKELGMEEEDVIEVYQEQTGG", "UniProt P04897": "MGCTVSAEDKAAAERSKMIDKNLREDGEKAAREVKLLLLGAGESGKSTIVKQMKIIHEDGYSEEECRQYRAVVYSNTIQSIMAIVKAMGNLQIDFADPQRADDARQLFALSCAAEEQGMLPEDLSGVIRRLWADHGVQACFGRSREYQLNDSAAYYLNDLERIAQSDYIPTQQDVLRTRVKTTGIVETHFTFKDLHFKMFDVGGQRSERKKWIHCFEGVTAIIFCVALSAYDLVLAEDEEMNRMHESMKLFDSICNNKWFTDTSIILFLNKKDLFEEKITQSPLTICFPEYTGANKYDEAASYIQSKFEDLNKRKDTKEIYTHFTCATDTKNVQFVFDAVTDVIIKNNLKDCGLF"}, "source": "paper PMC3232247", "molecules": {"B1": {"name": "RGSZ2 (regulator of G protein signaling 17), recombinant, GST-free (protein, UniProt Q9QZB0 1-210)", "chain": "MRKRQQSQNEGTQAVSQAPGNQRPNNTCCFCWCCCCSCSCLTVRNEERGDSSGRSPHTTKMESIQVLEECQNPTADEVLSWSQNFDKMMKTPAGRNLFREFLRTEYSEENLLFWLACEDLKKEQNKKAVEEKARMIYEDYISILSPKEVSLDSRVREVINRSLLDPSPHMYEDAQLQIYTLMHRDSFPRFLNSQIYKAFVESTTSCTSES"}}, "key": {"SUMO3 [1]": {"molecular_target": "SUMO3 (UniProt P55854)", "assay": "pull-down; SUMO1-, SUMO2- or SUMO3-agarose incubated with the recombinant protein for 2 h at room temperature in 50 mM HEPES pH 8.0, 1 mM EDTA, 1 mM DTT, 0.05% C12E10; washed beads boiled, immunoblot; both purified"}, "[2]": {"molecular_target": "SUMO1 (Small Ubiquitin-like MOdifier 1) (UniProt P63165)", "assay": "pull-down; SUMO1-, SUMO2- or SUMO3-agarose incubated with the recombinant protein for 2 h at room temperature in 50 mM HEPES pH 8.0, 1 mM EDTA, 1 mM DTT, 0.05% C12E10; washed beads boiled, immunoblot; both purified"}, "[3]": {"molecular_target": "T1, RGSZ2 (regulator of G protein signaling 17), recombinant, GST-free (murine) (UniProt Q9QZB0)", "T1 sequence": "B1 chain", "assay": "co-IP; single turnover GTPase reaction of GTP-loaded Gαi with RGSZ2 and increasing concentrations of free SUMO1; at 60 s RGSZ2 immunoprecipitated (CT antibody), Western blot with anti-Gαi antibody; both purified"}, "SUMO3 [4]": {"molecular_target": "SUMO3 (UniProt P55854)", "assay": "pull-down; SUMO1-, SUMO2- or SUMO3-agarose incubated with the recombinant protein for 2 h at room temperature in 50 mM HEPES pH 8.0, 1 mM EDTA, 1 mM DTT, 0.05% C12E10; washed beads boiled, immunoblot; both purified", "remark": "listed apart in the source"}, "[5]": {"molecular_target": "SUMO1 (Small Ubiquitin-like MOdifier 1) (UniProt P63165)", "assay": "pull-down; SUMO1-, SUMO2- or SUMO3-agarose incubated with the recombinant protein for 2 h at room temperature in 50 mM HEPES pH 8.0, 1 mM EDTA, 1 mM DTT, 0.05% C12E10; washed beads boiled, immunoblot; both purified", "remark": "listed apart in the source"}}, "note": "Like-named read-outs stand apart in the source and are kept apart here. These are yes or no findings as the source states them, for the method shown. Some entries that bind do so weakly or less than the wild type. For some assays here: Sequences can lack the tags named with a protein.", "data": [{"molecule": "Gαi2 subunit (from UniProt P04897 1-355)", "values": [{"measurement": "binding", "setting": "SUMO3 [1]", "result": "no binding"}, {"measurement": "binding", "setting": "[2]", "result": "no binding"}, {"measurement": "binding", "setting": "[3]", "result": "binds"}]}, {"molecule": "B1", "values": [{"measurement": "binding", "setting": "SUMO3 [4]", "result": "binds"}, {"measurement": "binding", "setting": "[5]", "result": "binds"}]}]}
